From US20090075929A1 come the findings set out here.

Results are given in words; binding and its absence hold for the method and conditions named. Some entries that bind do so weakly or less than the wild type.

This assay concerns the target DR5 (death receptor 5), endogenous in PA-1 cells, O14763. In words: IP of DR5 from PA-1 lysates, immunoblot for caspase-8. Conditions: remark: other sources report otherwise. For orientation: A western blot detects proteins with antibodies after separation by electrophoresis.

B1: caspase-8 (pro-caspase-8, p55/53), endogenous, Q14790 1-479 (enzyme, UniProt Q14790 1-479, looked up)
chain: MDFSRNLYDIGEQLDSEDLASLKFLSLDYIPQRKQEPIKDALMLFQRLQEKRMLEESNLSFLKELLFRINRLDLLITYLNTRKEEMERELQTPGRAQISAYRVMLYQISEEVSRSELRSFKFLLQEEISKCKLDDDMNLLDIFIEMEKRVILGEGKLDILKRVCAQINKSLLKIINDYEEFSKERSSSLEGSPDEFSNGEELCGVMTISDSPREQDSESQTLDKVYQMKSKPRGYCLIINNHNFAKAREKVPKLHSIRDRNGTHLDAGALTTTFEELHFEIKPHDDCTVEQIYEILKIYQLMDHSNMDCFICCILSHGDKGIIYGTDGQEAPIYELTSQFTGLKCPSLAGKPKVFFIQACQGDNYQKGIPVETDSEEQPYLEMDLSSPQTRYIPDEADFLLGMATVNNCVSYRNPAEGTWYIQSLCQSLRERCPRGDDILTILTEVNYEVSNKDDKKNMGKQMPQPTFTLRKKLVFPSD
Turning to B1, the binding result is on record as “binds”.
